Test results: patent US20090068169A1, “2,4,6-triamino-s-triazine-based compounds which bind to the tail (fc) portion of immunoglobulins and their use” (priority 2004, published 2009)
Some entries share one result that the patent states for a list of compounds.

Test system: adjuvant-induced arthritis in female Lewis rats
Experiment: Freund's adjuvant-induced arthritis (AIA)
Format: in vivo

`Nc1ccc(CCNc2nc(NCCCCCCO)nc(Nc3cccc(N)c3)n2)cc1` [Compound 1] was tested. Which “significant reduction in the severity of arthritis (inflammatory index)” value (“significant reduction … (inflammatory index)” for short) (intravenous injection, on day 3 and 7, FIG. 3) did it give?
The value was “up to 30%”.

`Nc1ccc(CCNc2nc(NCCCCO)nc(Nc3cccc(N)c3)n2)cc1` [Compound 3] was tested. Which “significant reduction … (inflammatory index)” value (intravenous injection, on day 3, 4, 5, 7 and 15, FIG. 3) did it give?
Its value is “up to 30%”.

With `CN(C[C@H](O)[C@@H](O)[C@H](O)[C@H](O)CO)c1nc(Nc2cccc(N)c2)nc(Nc2cccc(N)c2)n1` [Compound 35] as the compound, how does the “significant reduction … (inflammatory index)” value (oral administration, on day 1 and 4, FIG. 4) read?
The value was “up to 25%”.

Which “significant reduction … (inflammatory index)” value (oral administration, on day 1, 2, 3, 4, 11, 12, 13, 15, 16, 17 and 20, FIG. 4) does the source give for `COc1ccc2c(c1)c(CC(=O)O)c(C)n2C(=O)c1ccc(Cl)cc1` [indomethacin, reference compound] here?
The value was “up to 25%”.

Which “significant reduction … (inflammatory index)” value (intravenous injection, on day 3, 4, 5, 7, 13 and 15, FIG. 3) does the source give for `CN(Cc1cnc2nc(N)nc(N)c2n1)c1ccc(C(=O)N[C@@H](CCC(=O)O)C(=O)O)cc1` [methotrexate, reference compound] here?
Its value is “up to 30%”.
